# Measurements reported in patent US11692011B2, “Hepatitis B virus-derived polypeptide and anti-viral use thereof” (priority 2018, dated 2023).
# Part of at least one peptide drawing is inferred or uncertain, most often the ends. For some of these results: For at least one compound, name, drawing or mass did not settle the structure. No end group written: not given here.
# Experiments:
# [1] = tested on: HBV; test: Transgenic mouse model expressing HBV W4P (serum HBsAg, HBV DNA, liver IFN-β mRNA); format: in vivo; settings: for HBV DNA levels in sera: Poly6 50 μg/kg, 3TC 500 μg/kg, intravenously twice a week, compared with PBS
# [2] = tested on: integration of HIV-1 DNA into the host genome; test: HIV-1 integration: 2-LTR PCR and Alu PCR in HIV-1-infected MT-4 cells; format: cell-based; settings: 48 hr
# [3] = molecular target: T1, HIV-1 integrase (Human immunodeficiency virus type 1 group M subtype B, UniProt P12497); test: Integrase acetylation (immunoprecipitation, acetylated lysine immunoblot) in infected MT-4 cells; format: cell-based; settings: Raltegravir 10 nM, Poly6 10 μM, 48 hr
# T1 construct: expressed in transfected cells
# [4] = tested on: type I interferon receptor; test: Anti-HBV effect after neutralization of type I interferon receptor (ELISA, qPCR); format: cell-based
# [5] = tested on: HBV; test: Combination treatment of entecavir and Poly6 in HepG2-2.15 cells (ELISA, qPCR); format: cell-based; settings: HepG2-2.15, 48 hr
# Protocol: Through the combination treatment of entecavir, which is currently used as an HBV anti-viral agent having a mechanism whereby activity of HBV polymerase in the nucleus is inhibited and converted to a phosphorylated form, and Poly6, which was confirmed to increase IFN-I, its anti-HBV effect and synergistic effect of IFN-I increase were examined. HepG2-2.15 cells were incubated at a density of 5×10^5 cells/well on a 6-well culture plate for 24 hr, and treated with PBS, ETV, or Poly6 alone or in combination of two substances. After incubating the cells for 48 hr, supernatants were collected, and subjected to ELISA, qPCR, and LDH assay.
# [6] = neutralizing antibody 2 hr before treatment, 48 hr
# [7] = compared with PBS (combination vs each single treatment)
Molecule,IFN-β mRNA level in liver tissue ([1]; 4 weeks),IFN-β mRNA level in liver tissue ([1]; 8 weeks),HBV DNA levels in sera ([1]; 8 weeks),level of 2-LTR circle [2],number of integrated cDNA [2],acetylation of integrase [3],"mRNA level of IFN-β increased by Poly6, after neutralizing antibodies [4]","mRNA level of ISG15 increased by Poly6, after neutralizing antibodies [4]","mRNA level of RIG-I increased by Poly6, after neutralizing antibodies [4]","HBV DNA level, after blocking the IFN receptor [4, 6]","HBeAg level reduced by Poly6, after blocking the IFN receptor [4, 6]",IFN-β mRNA expression in liver tissue relative to 3TC-treated group ([1]; 4 weeks and 8 weeks),"HBsAg levels in sera ([1]; 8 weeks, Poly6 50 μg/kg intravenously twice a week, compared with 3TC)",extracellular HBV DNA levels ([5]; compared with PBS (combination also vs single treatment)),"level of extracellular e antigen [5, 7]","level of extracellular s antigen [5, 7]"
"Nc1ccn([C@@H]2CS[C@H](CO)O2)c(=O)n1 [Poly 3TC, Lamivudine, reference compound]",significantly increased,significantly increased,decreased about twice,–,–,–,–,–,–,–,–,–,–,–,–,–
"GRLVFQ [Poly6, GRLVFQ]",significantly increased,significantly increased,decreased about twice,increased,remarkably reduced,inhibit,reduced,reduced,reduced,recovered to the level of the PBS-treated group,significantly increased again,higher expression,significantly decreased,statistically significantly reduced,statistical significance was observed,statistical significance was observed
